Results deposited as PubChem BioAssay AID602196 (INSERM, 2012).

- Aim: 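Modifiers of cisplatin sensitivity in A549 cells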
- Cell system: human A549 lung cancer cells
- Knock-down reagent: siRNA pair against human genes
- Time to read-out: 48 h transfection before cisplatin; time from cisplatin to read-out not stated
- Challenge: cisplatin at a dose killing half of control-siRNA cells; exact dose and duration not given
- Measurement: 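Shift in cisplatin death relative to control siRNA, from -50 (all cells die) to +50 (no cells die); siRNAs harmful on their own scored 0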
- Direction: two-siRNA summed score (-2 to +2): higher = both siRNAs protect from cisplatin killing; -2 means both sensitise; mean protection from cisplatin (shift in death): higher = protection from cisplatin killing
- Hit rule: 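siRNAs harmful alone (LDH or WST-1) get 0; others get +1 for less and -1 for more cisplatin killing; genes are active when the two siRNAs give the same sign, summing to ±2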
- Meaning of the calls: active = both siRNAs shift cisplatin killing the same way; inactive = no consistent shift, or siRNA harmful alone
The deposit covers about 23,000 reagents; below is a random part of them. Over the whole deposit, 455 (2%) are marked active. 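Active includes both protection and sensitisation; some change values fall well beyond the stated -50 to +50 range.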 A number with no mark means an inactive call. Not all columns of the deposit are shown. Not given: the amount of reagent.

TMEM161A (GeneID 54929)
- two-siRNA summed score (-2 to +2): 1
- mean protection from cisplatin (shift in death) (%): 2.7

TRPS1 (GeneID 7227)
- two-siRNA summed score (-2 to +2): 0
- mean protection from cisplatin (shift in death) (%): 5.1

CLDN18 (GeneID 51208)
- two-siRNA summed score (-2 to +2): 1
- mean protection from cisplatin (shift in death) (%): 9.2

MGC48637
- two-siRNA summed score (-2 to +2): 1
- mean protection from cisplatin (shift in death) (%): 21.7

MTMR2 (GeneID 8898)
- two-siRNA summed score (-2 to +2): 0
- mean protection from cisplatin (shift in death) (%): 9.6

LOC440888
- two-siRNA summed score (-2 to +2): 0
- mean protection from cisplatin (shift in death) (%): 0.1

SMAD9 (GeneID 4093)
- two-siRNA summed score (-2 to +2): 0
- mean protection from cisplatin (shift in death) (%): -1.2

LOC442585
- two-siRNA summed score (-2 to +2): 0
- mean protection from cisplatin (shift in death) (%): 9

GRK2 (GeneID 156)
- two-siRNA summed score (-2 to +2): 0
- mean protection from cisplatin (shift in death) (%): -0.2

RETNLB (GeneID 84666)
- two-siRNA summed score (-2 to +2): -2 (active)
- mean protection from cisplatin (shift in death) (%): -17.9

C9orf153 (GeneID 389766)
- two-siRNA summed score (-2 to +2): 1
- mean protection from cisplatin (shift in death) (%): 23.2

KNL1 (GeneID 57082)
- two-siRNA summed score (-2 to +2): 0
- mean protection from cisplatin (shift in death) (%): 3.1

JMJD7-PLA2G4B (GeneID 8681)
- two-siRNA summed score (-2 to +2): 0
- mean protection from cisplatin (shift in death) (%): 6.7

LOC389992
- two-siRNA summed score (-2 to +2): 0
- mean protection from cisplatin (shift in death) (%): 11

PTPRM (GeneID 5797)
- two-siRNA summed score (-2 to +2): 0
- mean protection from cisplatin (shift in death) (%): -0.7

BLTP1 (GeneID 84162)
- two-siRNA summed score (-2 to +2): 1
- mean protection from cisplatin (shift in death) (%): 0.5

LRTOMT (GeneID 220074)
- two-siRNA summed score (-2 to +2): 0
- mean protection from cisplatin (shift in death) (%): 14.4

Records above with an active call (1):
RETNLB (GeneID 84666)
- two-siRNA summed score (-2 to +2): -2 (active)
- mean protection from cisplatin (shift in death) (%): -17.9

The list goes on:
SBF2 (GeneID 81846)
- two-siRNA summed score (-2 to +2): 0
- mean protection from cisplatin (shift in death) (%): 0.2

CYP11B2 (GeneID 1585)
- two-siRNA summed score (-2 to +2): -1
- mean protection from cisplatin (shift in death) (%): -23.7

CSF1R (GeneID 1436)
- two-siRNA summed score (-2 to +2): -1
- mean protection from cisplatin (shift in death) (%): -7

PANX2 (GeneID 56666)
- two-siRNA summed score (-2 to +2): 0
- mean protection from cisplatin (shift in death) (%): -1.7

ADAT1 (GeneID 23536)
- two-siRNA summed score (-2 to +2): 1
- mean protection from cisplatin (shift in death) (%): 14.8

MAPK1IP1L (GeneID 93487)
- two-siRNA summed score (-2 to +2): 1
- mean protection from cisplatin (shift in death) (%): 5.7

NMD3 (GeneID 51068)
- two-siRNA summed score (-2 to +2): 0
- mean protection from cisplatin (shift in death) (%): -3.7

CRLF1 (GeneID 9244)
- two-siRNA summed score (-2 to +2): -1
- mean protection from cisplatin (shift in death) (%): -17.8

LY6G6E (GeneID 79136)
- two-siRNA summed score (-2 to +2): 0
- mean protection from cisplatin (shift in death) (%): -1.5

LOC441196
- two-siRNA summed score (-2 to +2): 0
- mean protection from cisplatin (shift in death) (%): -1.4

TRIM27 (GeneID 5987)
- two-siRNA summed score (-2 to +2): 0
- mean protection from cisplatin (shift in death) (%): -0.9

LOC392208
- two-siRNA summed score (-2 to +2): 1
- mean protection from cisplatin (shift in death) (%): 3.7

SLC38A5 (GeneID 92745)
- two-siRNA summed score (-2 to +2): 0
- mean protection from cisplatin (shift in death) (%): -3.7

CAPNS2 (GeneID 84290)
- two-siRNA summed score (-2 to +2): 0
- mean protection from cisplatin (shift in death) (%): 5.4

SNX20 (GeneID 124460)
- two-siRNA summed score (-2 to +2): 0
- mean protection from cisplatin (shift in death) (%): 5.2

LOC440426
- two-siRNA summed score (-2 to +2): 1
- mean protection from cisplatin (shift in death) (%): 15.1

SUCLG2P2 (GeneID 283398)
- two-siRNA summed score (-2 to +2): 0
- mean protection from cisplatin (shift in death) (%): 11

DPEP3 (GeneID 64180)
- two-siRNA summed score (-2 to +2): 0
- mean protection from cisplatin (shift in death) (%): 9.5

ROR2 (GeneID 4920)
- two-siRNA summed score (-2 to +2): 0
- mean protection from cisplatin (shift in death) (%): 9.4

AQP4-AS1 (GeneID 147429)
- two-siRNA summed score (-2 to +2): 0
- mean protection from cisplatin (shift in death) (%): 3.8

AGTRAP (GeneID 57085)
- two-siRNA summed score (-2 to +2): 0
- mean protection from cisplatin (shift in death) (%): -1.5

FZD3 (GeneID 7976)
- two-siRNA summed score (-2 to +2): 0
- mean protection from cisplatin (shift in death) (%): -4.1

KAT7 (GeneID 11143)
- two-siRNA summed score (-2 to +2): -1
- mean protection from cisplatin (shift in death) (%): -12.2
